No constants are given. Whether binding was seen depends on the method and setting. Binding seen in cells or lysates may run through a third protein. Some results given as binding are weak or reduced against the parent protein; the word gives no strength. Blank lines part the entries; values can stand above or below the substance they belong to.
Legend:
[1] = target: Myc-tagged human BMPR2 (pcDNA3-hBMPR2-myc) (human) (UniProt Q13873); test: co-IP; 293FT cells transfected with hBMPR2-myc and/or T7-hCAV1 and/or T7-hCAV1ΔCSD; lysates precipitated with anti-T7 or anti-myc antibodies
[2] = target: Myc-tagged human BMPR2 (pcDNA3-hBMPR2-myc) (human) (UniProt Q13873); test: co-IP; 293FT cells transfected with T7-hCAV1 and/or hBMPR2-myc and/or FLAG-hCavin-1; lysates precipitated with anti-myc antibody on magnetic beads, 4 °C overnight
GST-CAV1(61-101) [3] = target: GST-CAV1(61-101) (UniProt Q03135); test: pull-down; GST or GST-CAV1(61-101) on glutathione-Sepharose beads, incubated with lysate of 293FT cells transfected with BMPR2-myc, with or without recombinant Cavin-1 protein; blot with anti-myc; only the target purified
GST-CAV1(61-101) [4] = target: GST-CAV1(61-101) (UniProt Q03135); test: pull-down; GST-CAV1(61-101) on glutathione-Sepharose beads, incubated with lysates of 293FT cells transfected with BMPR2-myc and/or FLAG-Cavin-1 (co-expression); blot with anti-myc or anti-FLAG; only the target purified
GST-CAV1(61-101) [5] = target: GST-CAV1(61-101) (UniProt Q03135); test: pull-down; GST-CAV1 fragments on glutathione-Sepharose beads, incubated with lysates of 293FT cells transfected with FLAG-Cavin-1 or BMPR2-myc, 4 °C, 2 h; blot with anti-FLAG or anti-myc; only the target purified
[6] = target: Caveolin-1 (CAV1), endogenous in human pulmonary artery endothelial cells (human (endogenous in hPAECs)) (UniProt Q03135); test: proximity ligation; Duolink II kit for CAV1 and BMPR2 in hPAECs transfected with pcDNA3.1+ or pFLAG-CMV-4-hCavin-1
[7] = target: Caveolin-1 (CAV1), endogenous in human pulmonary artery endothelial cells (human (endogenous in hPAECs)) (UniProt Q03135); test: proximity ligation; Duolink II kit in hPAECs with anti-CAV1 and anti-Cavin-1 or anti-BMPR2 antibodies; normoxia or hypoxia for 2 h; PLA signals counted in each cell

Protein sequences, listed by entry. Tags and fused reporters are not part of them. Lines headed by an entry give the natural chain unless they say otherwise; changes in a name come on top. Chains listed by the source or under a name are the forms on record and can include a tag or linker. Residues count along the entry.
UniProt Q13873, residues 27-1038: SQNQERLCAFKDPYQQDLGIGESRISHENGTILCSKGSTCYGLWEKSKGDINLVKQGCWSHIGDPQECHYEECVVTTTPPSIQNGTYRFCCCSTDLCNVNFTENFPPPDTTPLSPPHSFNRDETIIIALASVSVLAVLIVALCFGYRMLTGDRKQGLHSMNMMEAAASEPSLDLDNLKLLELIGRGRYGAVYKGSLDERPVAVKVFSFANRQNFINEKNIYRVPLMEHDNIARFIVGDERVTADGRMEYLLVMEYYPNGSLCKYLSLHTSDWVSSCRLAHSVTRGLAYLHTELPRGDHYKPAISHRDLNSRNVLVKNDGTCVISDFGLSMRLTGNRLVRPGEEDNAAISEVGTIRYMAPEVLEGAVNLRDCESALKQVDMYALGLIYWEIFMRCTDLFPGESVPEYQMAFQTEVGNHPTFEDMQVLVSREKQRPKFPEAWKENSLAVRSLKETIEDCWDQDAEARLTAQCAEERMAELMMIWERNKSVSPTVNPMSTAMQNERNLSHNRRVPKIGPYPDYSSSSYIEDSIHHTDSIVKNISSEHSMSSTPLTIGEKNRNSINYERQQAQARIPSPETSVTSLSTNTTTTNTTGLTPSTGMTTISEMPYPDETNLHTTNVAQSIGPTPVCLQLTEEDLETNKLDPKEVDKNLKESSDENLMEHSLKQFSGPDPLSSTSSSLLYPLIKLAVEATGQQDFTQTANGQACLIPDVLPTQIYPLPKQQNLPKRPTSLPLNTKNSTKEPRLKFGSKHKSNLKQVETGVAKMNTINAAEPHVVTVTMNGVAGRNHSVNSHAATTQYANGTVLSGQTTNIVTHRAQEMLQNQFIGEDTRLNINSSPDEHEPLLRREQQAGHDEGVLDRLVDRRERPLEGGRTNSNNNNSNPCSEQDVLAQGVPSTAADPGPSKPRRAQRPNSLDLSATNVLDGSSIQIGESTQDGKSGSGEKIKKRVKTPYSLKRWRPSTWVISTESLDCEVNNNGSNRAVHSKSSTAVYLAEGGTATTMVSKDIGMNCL
UniProt Q03135: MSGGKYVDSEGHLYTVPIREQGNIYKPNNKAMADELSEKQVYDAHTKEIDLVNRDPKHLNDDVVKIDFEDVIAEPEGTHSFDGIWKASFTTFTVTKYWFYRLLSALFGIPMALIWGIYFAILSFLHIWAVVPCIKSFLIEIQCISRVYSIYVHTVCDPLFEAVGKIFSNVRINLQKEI
GST-CAV1(61-101): residues 61-101 of Q03135
T7-tagged human Caveolin-1 ΔCSD (pcDNA3.1-T7-hCAV1 ΔCSD, 81-101 deletion) (Q03135, form named): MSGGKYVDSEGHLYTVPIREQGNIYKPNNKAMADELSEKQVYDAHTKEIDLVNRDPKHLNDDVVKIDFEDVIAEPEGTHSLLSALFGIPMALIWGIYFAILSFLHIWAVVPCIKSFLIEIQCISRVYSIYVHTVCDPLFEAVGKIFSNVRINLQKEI

binding [1]: binds | binding [2]: binds
Substance: T7-tagged human Caveolin-1 (pcDNA3.1-T7-hCAV1) (from UniProt Q03135 1-178)

binding (GST-CAV1(61-101) [3]): binds | binding (GST-CAV1(61-101) [4]): binds | binding (GST-CAV1(61-101) [5]): binds
Substance: Myc-tagged human BMPR2 (pcDNA3-hBMPR2-myc) (from UniProt Q13873 27-1038) (receptor)

binding [6]: binds | binding [7]: binds
Substance: Bone morphogenetic protein type 2 receptor (BMPR2), endogenous in human pulmonary artery endothelial cells (from UniProt Q13873 27-1038)

binding [1]: no binding
Substance: T7-tagged human Caveolin-1 ΔCSD (pcDNA3.1-T7-hCAV1 ΔCSD, 81-101 deletion) (from UniProt Q03135 1-178)
